Assay results reported in PubChem BioAssay (Tox21).
Where “and” joins values, the source holds several entries; their conditions need not be identical. Identical values can stand only once. Inconclusive means that the source gave no clear call. Such entries were picked first, then a sample of the others. For some of these results: A potency beside an inconclusive call is a rough fit, not a confirmed value. Calls of active or inactive are those of the source. Unless noted, calls come from the whole dose curve; as a rule, active = well fitted curve in the direction sought with a large enough effect in the repeat runs; inconclusive = weak or mixed curves; inactive = no such curve, though single readings can be large; an effect the other way counts as inactive or inconclusive.

Amino acid sequences for entries named in this document (tags omitted). A change or cut given only in a name is not applied to a line headed by its entry.
UniProt P11473: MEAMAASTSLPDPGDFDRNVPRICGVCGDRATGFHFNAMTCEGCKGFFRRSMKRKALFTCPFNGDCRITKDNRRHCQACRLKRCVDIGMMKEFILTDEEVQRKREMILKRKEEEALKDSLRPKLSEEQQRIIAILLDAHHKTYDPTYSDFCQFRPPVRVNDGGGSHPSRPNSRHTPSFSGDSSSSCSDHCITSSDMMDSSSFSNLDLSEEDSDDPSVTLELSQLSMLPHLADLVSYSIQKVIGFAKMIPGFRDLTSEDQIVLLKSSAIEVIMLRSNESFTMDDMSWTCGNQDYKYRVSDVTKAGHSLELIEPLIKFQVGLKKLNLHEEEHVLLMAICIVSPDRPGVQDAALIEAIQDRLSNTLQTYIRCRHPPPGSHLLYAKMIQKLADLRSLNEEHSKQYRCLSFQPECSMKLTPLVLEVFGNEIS
UniProt P19793: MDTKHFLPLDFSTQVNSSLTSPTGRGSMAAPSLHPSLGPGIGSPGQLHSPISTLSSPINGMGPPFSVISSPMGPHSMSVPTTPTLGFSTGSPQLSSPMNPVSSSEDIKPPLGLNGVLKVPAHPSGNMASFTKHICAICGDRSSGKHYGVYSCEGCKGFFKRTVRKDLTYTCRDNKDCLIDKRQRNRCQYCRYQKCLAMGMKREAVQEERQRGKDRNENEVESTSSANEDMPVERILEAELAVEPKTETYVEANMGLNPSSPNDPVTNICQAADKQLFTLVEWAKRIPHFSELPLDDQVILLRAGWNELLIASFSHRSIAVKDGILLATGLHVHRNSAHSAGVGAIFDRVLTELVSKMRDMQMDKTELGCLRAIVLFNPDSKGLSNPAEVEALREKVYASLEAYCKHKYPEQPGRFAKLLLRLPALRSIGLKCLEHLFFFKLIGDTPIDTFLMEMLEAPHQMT
UniProt Q03181: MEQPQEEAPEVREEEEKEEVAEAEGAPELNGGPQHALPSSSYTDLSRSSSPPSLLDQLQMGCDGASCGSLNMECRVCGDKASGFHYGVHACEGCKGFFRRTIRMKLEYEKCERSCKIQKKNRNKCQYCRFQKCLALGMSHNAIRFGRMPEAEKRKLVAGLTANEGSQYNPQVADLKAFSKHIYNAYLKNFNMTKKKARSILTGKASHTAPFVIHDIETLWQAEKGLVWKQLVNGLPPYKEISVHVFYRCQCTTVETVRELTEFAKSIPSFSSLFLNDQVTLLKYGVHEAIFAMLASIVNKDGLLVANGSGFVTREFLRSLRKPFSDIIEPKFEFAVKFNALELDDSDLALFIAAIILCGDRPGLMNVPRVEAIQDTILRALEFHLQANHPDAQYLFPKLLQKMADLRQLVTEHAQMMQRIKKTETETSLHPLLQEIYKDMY

Key:
[1] = target: Vitamin D3 receptor (Homo sapiens) (UniProt P11473); assay: qHTS assay to identify small molecule antagonists of the vitamin D receptor (VDR) signaling pathway (AID 743223; active = well fitted inhibition curve with a large enough effect in the signal ratio in the repeat runs, not every such curve was filed as active; inconclusive = weak or mixed curves, or effect the other way; inactive = no such curve, though single readings can be large or run the other way; the % refers to the signal ratio; note: potency is the fitted concentration of half-maximal effect; for activity change, negative = inhibition: % is set by controls: 0 for no effect and ±100 for the full control effect); conditions: VDR-UAS-bla HEK293T, beta-lactamase FRET ratio, 16 h; activity change, negative = inhibition: at 61 µM (top of the series) unless noted
Outline: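 After VDR-bla cells are plated and left 4 h at 37C, DMSO-dissolved compounds and 3 nM (final) calcitriol agonist are added. Incubation continues 16 h at 37C; FRET beta-lactamase substrate then develops 2 h at room temperature.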

[2] = qHTS assay to identify small molecule antagonists of the retinoid-related orphan receptor gamma (ROR-gamma) signaling pathway - cell viability counter screen (AID 1159520); note: nearly all actives have a fitted effect of over 50% in size; note: potency is the fitted concentration of half-maximal effect
Outline: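 Cytotoxicity was read from cellular ATP (CellTiter-Glo luminescence) after 16 hr at 37 C with 1 uM doxycycline induction. The inducer was added 2 hr after compound transfer to Tet-on ROR gamma CHO cells.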

[3] = target: Retinoic acid receptor RXR-alpha (Homo sapiens) (UniProt P19793); assay: qHTS assay to identify small molecule agonists of the RXR signaling pathway (AID 1159527; calls by dose curve; note: nearly all actives have a fitted effect of over 35% in size; note: potency is the fitted concentration of half-maximal effect); conditions: HEK293T RXRa-UAS-bla, beta-lactamase ratio, 16 h; activation: at 76.8 µM (top of the series) unless noted
Outline: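 Reporter activation is measured as beta-lactamase activity via FRET substrate cleavage (emission 460/530 nm) in HEK 293T cells expressing an RXR-alpha-driven bla construct, following 16 hr compound exposure at 37 C.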

[4] = qHTS assay to identify small molecule agonists of the RXR signaling pathway - cell viability counter screen (AID 1159529); note: nearly all actives have a fitted effect of over 50% in size; note: potency is the fitted concentration of half-maximal effect
Outline: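 Tox21 10K compounds were tested for cytotoxicity against GeneBLAzer RXR-alpha HEK 293T cells grown in 2% charcoal-stripped FBS. Exposure lasted 16 hr at 37 C, 5% CO2; viability read by CellTiter-Glo luminescence.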

[5] = qHTS assay to identify small molecule agonists of the vitamin D receptor (VDR) signaling pathway - cell viability counter screen (AID 743224); conditions: VDR-bla HEK293T viability, CellTiter-Glo luminescence, 16 h; activity change, negative = cytotoxicity: at 62.6 µM (top of the series); note: % is set by controls: 0 for no effect and ±100 for the full control effect; nearly all actives have a fitted effect of over 50% in size
Outline: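 CellTiter-Glo viability readout on VDR-bla cells, measured after 16 h of compound treatment at 37C in the same wells.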

[6] = qHTS assay to identify small molecule antagonists of the vitamin D receptor (VDR) signaling pathway - cell viability counter screen (AID 743225); conditions: VDR-bla HEK293T viability, CellTiter-Glo luminescence, 16 h; viability change, negative = cytotoxic: at 61 µM (top of the series) unless noted; note: potency is the fitted concentration of half-maximal effect; nearly all actives have a fitted effect of over 50% in size
Outline: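 Cytotoxicity toward the VDR-bla HEK 293T line was scored by ATP-based CellTiter-Glo luminescence, read in the wells already used for the beta-lactamase readout after 16 h compound treatment under 3 nM 1-alpha,25-dihydroxyvitamin D3 stimulation.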

[7] = qHTS assay to identify small molecule antagonists of the peroxisome proliferator-activated receptor delta (PPARd) signaling pathway - cell viability counter screen (AID 743213); conditions: PPARd-bla HEK293H viability, CellTiter-Glo luminescence, 17 h; viability change, negative = cytotoxic: at 62 µM (top of the series) unless noted
Outline: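 Viability counter-screen, qHTS format: PPARd-bla HEK293H, L165041 300 nM final, 17 h compound exposure at 37 C, CellTiter-Glo luminescence after 30 min RT.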

[8] = target: Peroxisome proliferator-activated receptor delta (Homo sapiens) (UniProt Q03181); assay: qHTS assay to identify small molecule antagonists of the peroxisome proliferator-activated receptor delta (PPARd) signaling pathway (AID 743215; active = well fitted inhibition curve with a large enough effect in the signal ratio in the repeat runs, not every such curve was filed as active; inconclusive = weak or mixed curves, or effect the other way; inactive = no such curve, though single readings can be large or run the other way; the % refers to the signal ratio;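 note: cells stimulated with agonist L165041 at 300 nM final during compound exposure; % is set by controls: 0 for no effect and ±100 for the full control effect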); conditions: HEK293H PPARd-UAS-bla, beta-lactamase FRET ratio, antagonist, 17 h; ratio activity, negative = inhibition: at 62 µM (top of the series) unless noted
Outline: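 Here, a reporter line (HEK293H, beta-lactamase under a UAS) measures PPARd signaling. Compounds are tested against agonist L165041 at 300 nM final concentration over 17 h at 37 C, with fluorescence read after substrate.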

[9] = qHTS assay to identify small molecule antagonists of the farnesoid-X-receptor (FXR) signaling pathway - cell viability counter screen (AID 743221; active = well fitted cell-killing curve with a large enough effect in the repeat runs, not every such curve was filed as active; inconclusive = weak or mixed curves, or effect the other way; inactive = no such curve, though single readings can be large or run the other way); conditions: FXR-bla HEK293T viability, CellTiter-Glo luminescence, 16 h; activity change, negative = cytotoxicity: at 62.6 µM (top of the series)
Outline: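 CellTiter-Glo, 30 min RT, luminescence; same wells as the LiveBLAzer FRET read. Cells: FXR-UAS-bla HEK 293T. Treatment: compound with chenodeoxycholic acid 50 uM final, 16 h at 37 C.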

[10] = target: Peroxisome proliferator-activated receptor delta (Homo sapiens) (UniProt Q03181); assay: qHTS assay to identify small molecule agonists of the peroxisome proliferator-activated receptor delta (PPARd) signaling pathway (AID 743212; calls by dose curve;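 note: HEK293H cells with PPARd UAS beta-lactamase reporter GeneBLAzer system; % is set by controls: 0 for no effect and ±100 for the full control effect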); conditions: HEK293H PPARd-UAS-bla, beta-lactamase FRET ratio, 17 h; activation: at 62.6 µM (top of the series) unless noted
Outline: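 Beta-lactamase reporter readout: a ratiometric FRET signal from the LiveBLAzer substrate after 2 h at room temperature. Compound exposure at 37 °C in PPARδ-bla HEK293H cells driven by an upstream activator sequence.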

[11] = qHTS assay to identify small molecule agonists of the AP-1 signaling pathway (AID 1159526; calls by dose curve; note: potency is the fitted concentration of half-maximal effect); conditions: ME-180 (cervical carcinoma) AP-1-bla reporter, beta-lactamase FRET ratio, 5 h; activation: at 76.8 µM (top of the series) unless noted
[12] = qHTS assay to identify small molecule agonists of the farnesoid-X-receptor (FXR) signaling pathway - cell viability counter screen (AID 743218); conditions: FXR-bla HEK293T viability, CellTiter-Glo luminescence, 16 h; viability change, negative = cytotoxic: at 62.6 µM (top of the series) unless noted; note: potency is the fitted concentration of half-maximal effect; nearly all actives have a fitted effect of over 45% in size
Outline: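 Quantitative HTS counter screen measuring ATP-based viability via CellTiter-Glo luminescence in HEK 293T cells carrying a UAS-driven beta-lactamase reporter, after 16 h compound exposure at 37 C.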

[13] = target: Vitamin D3 receptor (Homo sapiens) (UniProt P11473); assay: qHTS assay to identify small molecule agonists of the vitamin D receptor (VDR) signaling pathway (AID 743222; calls by dose curve; note: % is set by controls: 0 for no effect and ±100 for the full control effect); conditions: HEK293T VDR-UAS-bla, beta-lactamase FRET ratio, 16 h; activation: at 63.5 µM (top of the series) unless noted
Outline: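 Tox21 cell reporter format: VDR-bla line, 16 h compound exposure in 5% CO2 at 37C, then fluorescence intensity after 2 h with LiveBLAzer B/G FRET substrate.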

Question: For `CC(=O)c1ccc2c(c1)[C@H](NC(=O)c1ccc(F)cc1)[C@@H](O)C(C)(C)O2`, which activity change, negative = inhibition [1] is on record?
Answer: inconclusive: 2.47%

Question: And the Potency [2]?
Answer: inactive

Question: What about the activation [3] of the same compound?
Answer: inconclusive: 7.76%

Question: And the Potency [4]?
Answer: inactive

Question: Which results are given for `CC(=O)OC(C)C`?
Answer: Potency [5]: inactive; Potency [6]: inconclusive: 3.37 µM [cytotoxic, single point]

Question: With `COCc1c(C(C)C)nc(C(C)C)c(/C=C/[C@@H](O)C[C@@H](O)CC(=O)O)c1-c1ccc(F)cc1` as the compound, how does the Potency [7] read?
Answer: inconclusive: 4.73 µM [cytotoxic, partial curve, poor fit]

Question: And the Potency [8]?
Answer: inactive

Question: What about the Potency [9] of the same compound?
Answer: inconclusive: 9.44 µM [falling, partial curve, poor fit]

Question: What about the activity change, negative = inhibition [1] of the same compound?
Answer: inconclusive: -19.6%

Question: What about the Potency [2] of the same compound?
Answer: inconclusive: 150 nM [cytotoxic, full curve] and inconclusive: 95.8 nM [cytotoxic, full curve]

Question: And the Potency [3]?
Answer: inconclusive: 1.2 µM [rising, full curve, poor fit]

Question: What about the Potency [4] of the same compound?
Answer: inconclusive: 268 nM [cytotoxic, full curve] and inconclusive: 12.2 µM [cytotoxic, partial curve, poor fit]

Question: Which results are given for `[Cu+]`?
Answer: Potency [10]: inactive; Potency [8]: inactive; Potency [2]: inconclusive: 61.1 µM [cytotoxic, partial curve, poor fit]; Potency [11]: inconclusive: 11 µM [full curve]

Question: Which Potency [12] does the source give for `Brc1nc2ccccc2s1` here?
Answer: inconclusive: 1.37 µM [rising, full curve, poor fit]

Question: What about the Potency [13] of the same compound?
Answer: inactive

Question: And the Potency [1]?
Answer: inconclusive: 1.38 µM [activator, full curve, poor fit]

Question: And the activity change, negative = inhibition [1]?
Answer: inconclusive: 3.44%

Question: What about the Potency [2] of the same compound?
Answer: inactive
